Laboratory results from PMC6377406.
Where two headings read alike, the source gives them in different places. These are yes or no findings as the source states them, for the method shown. Binding seen in cells or lysates may run through a third protein. These calls come from enrichment with a bait or labelling near it, and not all partners need be listed.

Protein sequences, listed by entry. Tags and fused reporters are not part of them. Lines headed by an entry give the natural chain unless they say otherwise; changes in a name come on top. Residues count along the entry.
UniProt Q9BXM7: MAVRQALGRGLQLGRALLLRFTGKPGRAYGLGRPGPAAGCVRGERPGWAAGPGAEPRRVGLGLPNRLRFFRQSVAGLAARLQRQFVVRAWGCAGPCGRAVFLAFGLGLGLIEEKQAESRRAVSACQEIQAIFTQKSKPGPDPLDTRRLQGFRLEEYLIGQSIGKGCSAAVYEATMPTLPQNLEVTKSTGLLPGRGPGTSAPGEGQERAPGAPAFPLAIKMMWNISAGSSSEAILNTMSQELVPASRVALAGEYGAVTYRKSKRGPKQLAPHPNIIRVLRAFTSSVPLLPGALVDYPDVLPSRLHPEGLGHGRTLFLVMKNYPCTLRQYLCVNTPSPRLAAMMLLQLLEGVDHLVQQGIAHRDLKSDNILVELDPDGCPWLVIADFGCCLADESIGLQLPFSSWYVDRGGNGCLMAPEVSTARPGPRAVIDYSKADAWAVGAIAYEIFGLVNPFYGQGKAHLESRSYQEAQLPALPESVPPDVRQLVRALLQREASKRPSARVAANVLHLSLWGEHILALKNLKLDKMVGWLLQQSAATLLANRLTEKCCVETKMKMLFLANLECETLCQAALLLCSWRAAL
UniProt Q3ZCQ8, residues 45-353: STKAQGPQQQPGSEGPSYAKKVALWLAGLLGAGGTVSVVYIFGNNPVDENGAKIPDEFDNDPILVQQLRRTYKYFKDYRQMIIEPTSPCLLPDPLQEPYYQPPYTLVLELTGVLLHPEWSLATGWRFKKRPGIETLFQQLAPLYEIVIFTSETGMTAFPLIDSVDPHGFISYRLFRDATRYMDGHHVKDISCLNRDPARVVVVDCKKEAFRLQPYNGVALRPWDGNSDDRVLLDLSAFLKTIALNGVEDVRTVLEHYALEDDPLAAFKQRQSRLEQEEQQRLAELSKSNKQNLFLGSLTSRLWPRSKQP

How the values were obtained:
[1] = molecular target: PINK1-GFP (UniProt Q9BXM7); test: affinity purification with mass spectrometry; GFP-IP (μMACS Epitope Tag Protein Isolation kit) of lysates of HEK293 cells expressing GFP or PINK1-GFP; gel bands analysed by label-free LC-MS
[2] = molecular target: PINK1-GFP (UniProt Q9BXM7); test: as above; remark: listed apart in the source

Translocase of inner mitochondrial membrane 50 homolog (from UniProt Q3ZCQ8 45-353)
binding [1]: binds

valosin-containing protein (VCP), endogenous in HEK293 cells (from UniProt P55072 1-806)
binding [1]: binds

B1: Translocase of outer mitochondrial membrane 40 homolog (protein, UniProt O96008 1-361)
chain: MGNVLAASSPPAGPPPPPAPALVGLPPPPPSPPGFTLPPLGGSLGAGTSTSRSSERTPGAATASASGAAEDGACGCLPNPGTFEECHRKCKELFPIQMEGVKLTVNKGLSNHFQVNHTVALSTIGESNYHFGVTYVGTKQLSPTEAFPVLVGDMDNSGSLNAQVIHQLGPGLRSKMAIQTQQSKFVNWQVDGEYRGSDFTAAVTLGNPDVLVGSGILVAHYLQSITPCLALGGELVYHRRPGEEGTVMSLAGKYTLNNWLATVTLGQAGMHATYYHKASDQLQVGVEFEASTRMQDTSVSFGYQLDLPKANLLFKGSVDSNWIVGATLEKKLPPLPLTLALGAFLNHRKNKFQCGFGLTIG
binding [2]: binds
